Test results: PMC5141290
These are yes or no findings as the source states them, for the method shown. In cells and extracts the contact can be indirect. Some entries that bind do so weakly or less than the wild type.

Chains of the proteins cited; added tags and fusions are not shown.
UniProt P85037: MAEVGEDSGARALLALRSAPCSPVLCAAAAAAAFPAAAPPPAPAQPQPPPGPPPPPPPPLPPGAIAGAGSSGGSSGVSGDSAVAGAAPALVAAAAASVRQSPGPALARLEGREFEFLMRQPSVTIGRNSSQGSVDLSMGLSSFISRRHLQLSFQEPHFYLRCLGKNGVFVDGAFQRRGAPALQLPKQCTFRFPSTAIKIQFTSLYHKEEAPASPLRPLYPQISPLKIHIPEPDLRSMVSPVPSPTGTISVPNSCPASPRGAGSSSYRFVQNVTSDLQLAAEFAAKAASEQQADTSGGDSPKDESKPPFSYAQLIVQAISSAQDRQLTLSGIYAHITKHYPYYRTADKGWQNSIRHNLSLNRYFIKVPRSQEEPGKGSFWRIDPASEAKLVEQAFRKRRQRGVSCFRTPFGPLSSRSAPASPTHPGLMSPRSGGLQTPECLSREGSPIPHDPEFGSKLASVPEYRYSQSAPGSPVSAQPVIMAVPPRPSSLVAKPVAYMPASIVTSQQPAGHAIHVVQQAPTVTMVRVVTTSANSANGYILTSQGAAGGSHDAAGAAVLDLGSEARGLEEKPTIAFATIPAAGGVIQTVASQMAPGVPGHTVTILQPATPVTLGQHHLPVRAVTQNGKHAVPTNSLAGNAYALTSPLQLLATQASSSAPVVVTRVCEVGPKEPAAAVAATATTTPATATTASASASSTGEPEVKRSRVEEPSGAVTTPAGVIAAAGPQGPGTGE

Target: Forkhead box k1 (FOXK1), endogenous (human (endogenous in SW480 and SW620)) (UniProt P85037)
Test: co-IP; whole-cell lysates of untransfected SW480 and SW620 cells; immunoprecipitation with anti-FOXK1 antibody (3 ug, 3 h, 4 °C, protein A-agarose), normal rabbit IgG as control; western blot with anti-FHL2 antibody

binding: binds
B1: four-and-a-half LIM protein 2 (FHL2), endogenous (protein, UniProt Q14192 1-279)
chain: MTERFDCHHCNESLFGKKYILREESPYCVVCFETLFANTCEECGKPIGCDCKDLSYKDRHWHEACFHCSQCRNSLVDKPFAAKEDQLLCTDCYSNEYSSKCQECKKTIMPGTRKMEYKGSSWHETCFICHRCQQPIGTKSFIPKDNQNFCVPCYEKQHAMQCVQCKKPITTGGVTYREQPWHKECFVCTACRKQLSGQRFTARDDFAYCLNCFCDLYAKKCAGCTNPISGLGGTKYISFEERQWHNDCFNCKKCSLSLVGRGFLTERDDILCPDCGKDI
